Test results taken from paper PMC8542041.
Results are given in words; binding and its absence hold for the method and conditions named. In cells and extracts the contact can be indirect. Some results given as binding are weak or reduced against the parent protein; the word gives no strength.

Protein sequences, listed by entry. Tags and fused reporters are not part of them.
UniProt Q16186: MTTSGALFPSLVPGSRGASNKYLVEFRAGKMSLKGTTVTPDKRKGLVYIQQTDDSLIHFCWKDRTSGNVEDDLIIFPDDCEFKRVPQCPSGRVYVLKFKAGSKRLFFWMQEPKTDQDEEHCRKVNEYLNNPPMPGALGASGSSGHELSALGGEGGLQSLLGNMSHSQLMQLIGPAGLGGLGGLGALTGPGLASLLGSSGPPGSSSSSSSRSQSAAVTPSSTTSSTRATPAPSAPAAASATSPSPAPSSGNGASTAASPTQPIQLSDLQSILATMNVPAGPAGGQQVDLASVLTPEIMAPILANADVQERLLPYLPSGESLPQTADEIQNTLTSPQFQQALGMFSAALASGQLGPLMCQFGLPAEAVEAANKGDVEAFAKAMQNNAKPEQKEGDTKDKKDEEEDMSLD

Biological target: T1, Kinectin1 (KTN1) (human (endogenous in A431 and HSC-5)) (UniProt Q86UP2)
T1 sequence: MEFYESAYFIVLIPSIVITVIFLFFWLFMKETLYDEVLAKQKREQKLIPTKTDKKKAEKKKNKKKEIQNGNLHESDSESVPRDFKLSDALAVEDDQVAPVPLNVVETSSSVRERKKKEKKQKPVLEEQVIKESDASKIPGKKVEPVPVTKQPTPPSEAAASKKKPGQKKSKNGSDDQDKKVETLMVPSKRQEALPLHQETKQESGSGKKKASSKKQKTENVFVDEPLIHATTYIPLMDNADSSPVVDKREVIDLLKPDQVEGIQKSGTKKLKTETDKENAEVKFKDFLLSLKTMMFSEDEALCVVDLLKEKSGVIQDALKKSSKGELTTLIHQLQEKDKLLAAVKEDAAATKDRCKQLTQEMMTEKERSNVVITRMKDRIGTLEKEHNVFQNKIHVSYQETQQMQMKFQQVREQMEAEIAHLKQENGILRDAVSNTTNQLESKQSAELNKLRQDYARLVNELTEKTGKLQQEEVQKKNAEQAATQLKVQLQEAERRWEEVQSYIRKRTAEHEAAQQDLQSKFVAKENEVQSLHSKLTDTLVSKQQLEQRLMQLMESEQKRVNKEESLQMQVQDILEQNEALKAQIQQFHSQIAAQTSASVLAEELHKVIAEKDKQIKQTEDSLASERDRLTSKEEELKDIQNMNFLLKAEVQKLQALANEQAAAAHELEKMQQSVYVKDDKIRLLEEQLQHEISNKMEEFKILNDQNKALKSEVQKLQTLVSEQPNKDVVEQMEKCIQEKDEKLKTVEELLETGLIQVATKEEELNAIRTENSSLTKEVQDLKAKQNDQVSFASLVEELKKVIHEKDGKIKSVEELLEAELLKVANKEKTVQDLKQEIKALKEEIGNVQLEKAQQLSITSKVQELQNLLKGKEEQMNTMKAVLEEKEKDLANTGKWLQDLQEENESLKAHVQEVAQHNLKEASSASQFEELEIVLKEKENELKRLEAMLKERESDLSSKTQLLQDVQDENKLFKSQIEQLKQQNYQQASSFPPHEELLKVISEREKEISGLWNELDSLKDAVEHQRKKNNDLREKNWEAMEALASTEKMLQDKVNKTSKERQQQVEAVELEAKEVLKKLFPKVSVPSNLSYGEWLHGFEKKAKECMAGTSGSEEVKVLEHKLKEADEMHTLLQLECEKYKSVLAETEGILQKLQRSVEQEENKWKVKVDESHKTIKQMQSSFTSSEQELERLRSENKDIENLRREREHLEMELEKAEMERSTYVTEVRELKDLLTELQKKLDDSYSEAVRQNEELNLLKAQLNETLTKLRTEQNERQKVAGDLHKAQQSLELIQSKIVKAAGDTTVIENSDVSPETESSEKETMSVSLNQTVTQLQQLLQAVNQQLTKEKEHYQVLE
Assay: co-IP; endogenous proteins in total lysates of A431 and HSC-5 cells; IP and immunoblotting with anti-PSMA1-7, anti-ADRM1 or anti-KTN1; for PSMA1-ADRM1 the cells were transfected with siKTN1 or siNC

Substance: adhesion regulating molecule 1 (ADRM1) (from UniProt Q16186 1-407)
- binding: binds
